No constants are given. Whether binding was seen depends on the method and setting. Binding seen in cells or lysates may run through a third protein. Some entries that bind do so weakly or less than the wild type. For some assays here: Sequences can lack the tags named with a protein.
What was measured:
[1] = target: T1, TNIP3 of the GST pull-down assay (UniProt Q96KP6); experiment: pull-down; GST pull-down; purified GST used as a control; which partner carried GST is not told
T1 sequence: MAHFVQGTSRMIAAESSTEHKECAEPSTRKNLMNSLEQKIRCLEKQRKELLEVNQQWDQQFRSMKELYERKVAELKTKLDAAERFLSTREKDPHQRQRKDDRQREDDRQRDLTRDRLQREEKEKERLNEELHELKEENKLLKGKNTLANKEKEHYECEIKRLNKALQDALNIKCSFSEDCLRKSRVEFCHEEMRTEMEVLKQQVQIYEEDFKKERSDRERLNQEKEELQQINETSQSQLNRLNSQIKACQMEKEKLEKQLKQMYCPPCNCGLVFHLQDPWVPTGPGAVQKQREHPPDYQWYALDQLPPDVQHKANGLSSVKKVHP

Chains of the proteins cited; added tags and fusions are not shown.
UniProt P42224: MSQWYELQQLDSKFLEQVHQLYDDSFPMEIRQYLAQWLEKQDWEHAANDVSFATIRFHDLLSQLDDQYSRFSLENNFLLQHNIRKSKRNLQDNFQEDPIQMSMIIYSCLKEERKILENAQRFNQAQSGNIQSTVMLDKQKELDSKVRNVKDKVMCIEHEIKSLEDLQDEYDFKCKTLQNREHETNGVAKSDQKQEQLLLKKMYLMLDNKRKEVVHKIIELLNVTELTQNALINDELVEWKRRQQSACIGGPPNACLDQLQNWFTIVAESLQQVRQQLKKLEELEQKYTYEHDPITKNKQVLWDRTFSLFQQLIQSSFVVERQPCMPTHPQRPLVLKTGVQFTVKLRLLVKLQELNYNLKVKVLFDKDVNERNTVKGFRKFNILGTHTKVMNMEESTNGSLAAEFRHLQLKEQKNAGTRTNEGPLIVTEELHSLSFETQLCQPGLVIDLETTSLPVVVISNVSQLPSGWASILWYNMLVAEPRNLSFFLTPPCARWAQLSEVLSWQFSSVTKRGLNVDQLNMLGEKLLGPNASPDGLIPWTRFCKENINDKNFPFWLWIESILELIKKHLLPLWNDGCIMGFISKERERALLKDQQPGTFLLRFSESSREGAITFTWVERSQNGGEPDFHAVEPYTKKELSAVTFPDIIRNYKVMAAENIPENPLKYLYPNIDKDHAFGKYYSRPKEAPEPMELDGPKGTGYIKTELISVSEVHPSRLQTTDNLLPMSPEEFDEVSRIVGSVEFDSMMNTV

[2] = target: T2, TNFAIP3 interacting protein 3 (TNIP3), human, full-length construct expressed in HEK293T cells (human) (UniProt Q96KP6); experiment: co-IP; HEK293T cells transfected with the indicated plasmids
T2 sequence: T1 sequence

binding [1]	binding [2]	Substance
binds	–	STAT1 of the GST pull-down assay (from UniProt P42224 1-750)
–	binds	signal transducer and activator of transcription 1 (STAT1), human, full-length construct expressed in HEK293T cells (from UniProt P42224 1-750)

Source: PMC11208599
